Source: PMC3511282

Columns and labels:
[1] = biological target: Sf-PHB2 (prohibitin 2) (Spodoptera frugiperda (Sf9 cells)) (UniProt H6T598); test: competition EMSA; conditions: 5- and 10-fold excess unlabeled probe prevented complex, 50 mM Tris pH 7.4, 2.5 mM EDTA, 0.25 mg/ml poly(dI/dC), 250 mM NaCl, 2.5 mM DTT, 5 mM MgCl2, 20% glycerol, 20 fmol probe, 10 ug Sf9 nuclear extract, 20 min, protein in an extract, residues 1-299
[2] = biological target: Sf-PHB2 (prohibitin 2) (Spodoptera frugiperda (Sf9 cells)) (UniProt H6T598); test: EMSA supershift; conditions: anti-Sf-PHB2 antibody 0.5 or 1 ug, poly(dI/dC); 50 mM Tris pH 7.4, 2.5 mM EDTA, 0.25 mg/ml poly(dI/dC), 250 mM NaCl, 2.5 mM DTT, 5 mM MgCl2, 20% glycerol; 20 fmol probe, 10 ug Sf9 nuclear extract, 20 min; protein in an extract; residues 1-299; label: 3' biotin

Question: Does “CTCATTTATTCCTAGAAATGGTGTAATC (double strand) [12-bp element unlabeled competitor]” bind [1]?
Answer: Result: binds

Question: Does “CTCATTTATTCCTAGAAATGGTGTAATC (double strand) [12-bp element probe (WSSV ie1 promoter)]” bind [2]?
Answer: Result: binds

For at least one entry, the source does not settle the construct or the ends of the probe. Where cells or extracts were used, other partners may take part.
